These are yes or no findings as the source states them, for the method shown. For some assays here: Binding can be weak; no strength is given.
B1: Myo4 peptide (residues 561–573) (peptide)
peptide: WKFIVSHYAVDVEY
notes: tryptophan introduced at the N-terminus for peptide quantification; also called myosin peptide; core of the myosin motif; source: synthetic peptide (in-house, HPLC purified)

Columns and labels:
[1] = molecular target: Kluyveromyces lactis SHE4, wildtype (Kluyveromyces lactis); assay: crystal structure; SHE4 co-crystallised with the Myo4 561-581 peptide; 0.1 M bicine/Trizma base pH 8.5, 10% PEG 20000, 20% PEG MME 550; 2.4 Å; both purified
[2] = molecular target: Kluyveromyces lactis SHE4 N475A (Kluyveromyces lactis); assay: condition: 10 μM SHE4 in the cell, 107 μM myosin peptide in the syringe; ITC; 25 °C, VP-ITC; 10 μM SHE4 in the cell, 90 μM (N475A: 107 μM) peptide in the syringe; 10 mM HEPES pH 8.0, 150 mM NaCl, 1 mM TCEP; single site model; both purified

| Binder | binding [1] | binding [2] |
| --- | --- | --- |
| WKFIVSHYAVDVEYEVEGFIEK (peptide, UniProt P32492 561-581) [Myo4 peptide (residues 561–581)] | binds | – |
| B1 | – | no binding |

From paper PMC11272940, “UNC-45 assisted myosin folding depends on a conserved FX3HY motif implicated in Freeman Sheldon Syndrome” (Nature Communications, 2024)
